No constants are given. Whether binding was seen depends on the method and setting. Sequences can lack the tags named with a protein.
Target: WAVE-DAMPENED2-LIKE7 (WDL7), pGBKT7 fusion (Arabidopsis thaliana) (UniProt Q67Y69)
Test: two-hybrid; pGADT7 and pGBKT7 fusions co-transformed into yeast strain AH109; growth on -Trp/-Leu/-His/-Ade medium, 28 °C, 2-3 days

The chains behind the UniProt entries cited, without tags or fusion partners.
UniProt Q67Y69: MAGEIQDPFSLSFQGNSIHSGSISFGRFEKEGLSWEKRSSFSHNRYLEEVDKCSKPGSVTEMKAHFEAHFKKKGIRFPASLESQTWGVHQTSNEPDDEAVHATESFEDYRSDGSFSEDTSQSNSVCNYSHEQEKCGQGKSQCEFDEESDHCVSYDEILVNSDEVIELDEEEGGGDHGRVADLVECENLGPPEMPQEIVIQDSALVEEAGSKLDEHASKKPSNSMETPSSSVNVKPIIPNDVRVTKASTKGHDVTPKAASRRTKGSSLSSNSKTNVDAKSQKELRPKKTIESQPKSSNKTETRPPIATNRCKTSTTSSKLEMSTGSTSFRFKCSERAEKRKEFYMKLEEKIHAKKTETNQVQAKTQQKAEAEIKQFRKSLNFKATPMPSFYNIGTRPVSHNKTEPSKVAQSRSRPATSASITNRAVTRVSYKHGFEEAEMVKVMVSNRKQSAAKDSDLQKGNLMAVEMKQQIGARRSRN

B1: MBR2, pGADT7 fusion (enzyme, UniProt O49500 1-666)
chain: MQGPRSTGDSSTGINYADGEPICSTNSETTSNNILNPVDVQFPNNTTGSGRPTYASSSSHVVQNHNWWSFGESSSRLGPSDHLNSNGSKTDRQLLSDGYGFEEGQSGMLLPGESFLRGSSSSHMLSHVNLGKDMDIGSGLQTSGVVIRHNNCETSLGSSSQTAEERSSGPGSSLGGLGSSCKRKALEGAPSHSFPGESHGCFFQTENGAWNEGLAQYDASSSLSLSMPSQNSPNVNNQSGLPEPRFGLGGGRAVTASAFPSTRSTETISRPGRRLNPGQPPESVAFSFTQSGSSVRQQQQLPATSPFVDPLDARAIPVTGSSSSGDGQPSMIHLPALTRNIHQFAWSASSSSRANSMPEEGLSPWDAPRINSEQPVFTTPANETRNPVQDQFCWSFTRGNPSTSGDSPFVPRAGSSSGIHGLQPNPTWVTPHNQSRISEVAPWSLFPSIESESATHGASLPLLPTGPSVSSNEAAAPSGSSSRSHRSRQRRSGLLLERQNDHLHLRHLGRSLAADNDGRNRLISEIRQVLSAMRRGENLRFEDYMVFDPLIYQGMAEMHDRHRDMRLDVDNMSYEELLALGERIGDVSTGLSEEVILKVMKQHKHTSSAAGSHQDMEPCCVCQEEYAEGDDLGTLGCGHEFHTACVKQWLMLKNLCPICKTVALST
- binding: no binding

— publication PMC8041845
